PubChem BioAssay AID493014 (National Center for Advancing Translational Sciences (NCATS), 2011)
The list shows a part of the results. These are further read-outs of the screen, such as a control signal, another cell line or another target. No call is given for them. The list favours compounds with an active or inconclusive main result. Words in brackets tell the shape of the fitted curve; partial curves, single points and poor fits give uncertain potencies.

Assay: qHTS Assay to Find Inhibitors of Chronic Active B-Cell Receptor Signaling
Details: ABC-DLBCL IkBa-CBG/CBR reporter, luminescence ratio (green luciferase fused to IkBa over red control in TMD8 lymphoma cells), 4 h
From the text: NIH Molecular Libraries Probe Production Network [MLPCN] NIH Chemical Genomics Center [NCGC] MLPCN Grant: 1 R03 DA031086-01A1 PI Name: Dr. R. Eric Davis NCGC Assay Overview: Diffuse large B-cell lymphoma (DLBCL) is the most common category of non-Hodgkin lymphoma, with ~20,000 new cases per year in the United States. DLBCL should be regarded as a collection of different neoplasms. Microarray gene expression analysis has defined two principal types of DLBCL, named for their similarity to normal B cell stages or activation states: a germinal center B-cell (GCB) type, and an activated B-cell (ABC) type. In ABC-DLBCL, a constitutive high-level activity of the NF-kappaB family of transcription factors has been observed (1) and NF-kappaB target genes are more highly expressed in ABC primary tumors than in GCB tumors. Functional studies have shown a constitutive high-level activity of the IkappaB (inhibitor of kappa-B) kinase (IKK) complex. […] Further analysis of DLBCL primary tumors for NF-kappaB target gene expression imply that although CARD11 is required for constitutive IKK activity in all ABC-DLBCL lines, mutations in CARD11 may be the root cause of IKK activation only in lines or tumors with such mutations. In other words, CARD11 mutations may explain NF-kappaB activation in only 10% of ABC-DLBCL cases. […] This process has been termed 'chronic active BCR signaling' (CABS). The goal of this screen is to find small-molecule inhibitors of the CABS pathway found in ABC-DLBCL lines using a cell-based assay that measures IkappaBalpa stability, which has already been extensively validated in the OCI-Ly3 line (PubChem AID:445; REF: 4). […] The assay uses green (CBG68) and red (CBR) emitting beetle luciferases [Chroma-GloTM developed by Promega Corp.] where the green luciferase is fused to IkappaBalpha and the red luciferase is present in its native state. Both luciferase genes are stably present in the TMD8 human ABC DLBCL cell line, but their expression is under the control of tetracycline-inducible promoters. Following the addition of doxycycline to induce expression of the luciferases, the green luminescence in control cultures rises only slowly because the CBG fusion partner IkappaBalpha is targeted by IKK activity for rapid degradation. In contrast, green luminescence rises rapidly in the presence of proteasome inhibitors or IKK inhibitors. The rise in red luminescence of CBR is not affected by proteasome or IKK inhibitors, and serves as normalization for cell number and nonspecific effects. Compounds were screened as a concentration-titration series that ranged from 46 uM to 3 nM.
NCGC Assay Protocol Summary: Cells were seeded in 1536-well plates at 5000 cells/4uL in IMDM medium containing 0.5% FBS, w/o phenol red, 1% penicillin/streptomycin. Then, 23 nL of compounds or DMSO were delivered to each well using a pin tool. One uL 20ng/ml doxycycline was then dispensed into white solid 1536-well plates and the plates were incubated at 37C/5% C02 in a cell incubator for 4 hrs. Then 4 uL luminescent substrate mix (in-house prepared: 150 mM Tris-Cl, pH 7.6, 3 mM MgCl2, 1% Triton X-100, 5 mM DTT, 0.2 mM CoA, 0.15 mM ATP, 5 mM D-luciferin, final concentrations) was added to each well. The plate was incubated at r.t. for 10-15 min. The plates were measured on a ViewLux plate reader for green luminescence (540/20 nm filter) and red luminescence (618/8 nm filter). The green and red luminescent signals were corrected for red and green luminescence filter overlap using previously determined filter calibration constants (determined using the procedure outlined in the Promega Technical Manual; REF 4). The %Activity was determined from the ratio of corrected green/red luminescent values. MG132 were used as control. […] Red luminescent %Activity was normalized to the difference between red luminesence in basal cells (0%Activity) and zero luminescence (-100% Activity). […]

[1] = measured here: CBR red luminescence, cell number
[2] = measured here: IkBa-CBG green luminescence

Row | SMILES | AC50 [1] | AC50 [2]
1 | CC1CCCN(C(=O)CSc2nnc(-c3ccc(S(=O)(=O)N4CCOCC4)cc3)n2C)C1 (stereo not drawn) | 31.6 µM [rising, single point] | –
2 | N#Cc1c(NC(=O)CSc2n[nH]c(N)n2)oc(-c2ccccc2)c1-c1ccccc1 | 14.6 µM [falling, partial curve] | –
3 | CC1(C)O[C@@H]2[C@H](O1)[C@@H](COS(=O)(=O)O)O[C@H]2n1cnc2c(N)ncnc21 | 23.1 µM [rising, partial curve, poor fit] | –
4 | CCN(CC(=O)NCc1cccs1)CC(=O)Nc1c(Cl)ccc(C)c1Cl | 1.46 µM [rising, full curve, poor fit] | –
5 | COc1ccc2nc(NC(=S)NC(=O)c3ccco3)sc2c1 | 7.08 µM [falling, full curve] | 3.55 µM [falling, full curve, poor fit]
6 | CC(C)(C)n1nnnc1C(c1cccs1)N(Cc1cccnc1)Cc1ccccc1Cl (stereo not drawn) | 14.6 µM [falling, partial curve] | 11.6 µM [rising, partial curve, poor fit]
7 | O=C(COC(=O)c1ccc(S(=O)(=O)NCc2ccco2)cc1)NC1CCCCCC1 | 29.1 µM [rising, single point] | –
8 | Brc1ccc(CSc2nnc(-c3cnccn3)n2Cc2ccco2)cc1 | 18.4 µM [falling, single point] | –
9 | Cc1ccc(NC(=O)c2cc(C(C)(C)C)nn2Cc2ccccc2)cc1 | 0.631 µM [falling, full curve, poor fit] | –
10 | Cn1nnnc1Sc1ncnc2scc(Br)c12 | 3.66 µM [falling, full curve] | –
11 | COc1ccc(N2C(=O)CN(Cc3cc(OC)c(OC)c(OC)c3)C2=S)cc1 | 8.91 µM [falling, partial curve, poor fit] | –
12 | CC(=O)c1ccc(S(=O)(=O)Nc2cccc(-c3ccc(N4CCOCC4)nn3)c2)cc1 | 8.2 µM [falling, partial curve, poor fit] | –
13 | CCN(CC)c1ccc(NC(=O)C(C)C)cc1 | 6.31 µM [rising, full curve, poor fit] | –
14 | CCOc1ccc(C(=O)NCc2ccc3c(c2)OCO3)cc1OCC | 5.62 µM [rising, partial curve, poor fit] | –
15 | Cn1c(=O)cc(OCC(=O)N2CCC(N3CCCCC3)CC2)c2ccccc21 | 0.517 µM [rising, full curve, poor fit] | –
16 | Cc1ccc(C(=O)n2c(N)nc3ccccc32)cc1 | 0.447 µM [falling, full curve] | –

One compound at a time, from the list above:
O=C(COC(=O)c1ccc(S(=O)(=O)NCc2ccco2)cc1)NC1CCCCCC1 in the list: AC50 [1]: 29.1 µM [rising, single point]
CC1(C)O[C@@H]2[C@H](O1)[C@@H](COS(=O)(=O)O)O[C@H]2n1cnc2c(N)ncnc21 in the list: AC50 [1]: 23.1 µM [rising, partial curve, poor fit]

Next records follow:

Row | SMILES | AC50 [1] | AC50 [2]
17 | OCCCNc1c2c(nc3cc(-c4ccc(Cl)cc4)nn13)CCC2 | 0.2 µM [rising, full curve, poor fit] | –
18 | CN(C(=O)COC(=O)CSc1ccc([N+](=O)[O-])cc1)c1ccccc1 | 5.8 µM [falling, full curve] | –
19 | O=c1[nH]c2ccc(NC(=S)Nc3ccc(Cl)cc3)cc2[nH]1 | 0.146 µM [falling, full curve, poor fit] | –
20 | CC(=O)N1C=Cc2c(c(C)c3c([nH]c4ccccc43)c2C)C1 | 8.91 µM [falling, partial curve, poor fit] | –
21 | N#CCc1ccc(NC(=O)/C=C/c2ccc([N+](=O)[O-])o2)cc1 | 11.2 µM [falling, partial curve, poor fit] | –
22 | COc1cccc(/C(O)=C2\C(=O)C(=O)N(c3ccccn3)C2c2cccc(OC)c2OC)c1 (stereo not drawn) | 17.8 µM [falling, partial curve, poor fit] | –
23 | CC(C)N1CCc2c(sc(NC(=O)c3ccc(C(=O)c4ccccc4)cc3)c2C(N)=O)C1 | 25.1 µM [falling, single point] | –
24 | O=C(NN=Cc1cc(Br)c(O)c(Br)c1)c1ccccc1NS(=O)(=O)c1cccs1 | 0.651 µM [rising, partial curve, poor fit] | –
25 | Cc1cc(-c2nc3cccnc3s2)ccc1NS(=O)(=O)c1ccc2c(c1)OCCO2 | 10.3 µM [falling, partial curve, poor fit] | –
26 | O=c1c(C(c2ccc(F)cc2)c2c(O)nc3n(c2=O)CCS3)c(O)nc2n1CCS2 | 3.16 µM [rising, partial curve, poor fit] | –
27 | CC1CCN(CC(O)COCCC23CC4CC(CC(C4)C2)C3)CC1 (stereo not drawn) | 29.1 µM [falling, single point] | –
28 | CC(Nc1nc(N2CCN(S(C)(=O)=O)CC2)nc2ccccc12)c1ccccc1 (stereo not drawn) | 29.1 µM [rising, single point] | –
29 | CCN(CC)C(=O)C1CC(c2ccc(OC)cc2)=NO1 (stereo not drawn) | 35.5 µM [falling, single point] | –
30 | CC(C)(C)C(=O)CSc1ncnc2c1cnn2-c1ccccc1 | 0.398 µM [rising, full curve, poor fit] | –
31 | Cc1coc(C)c1C(=O)CC1(O)C(=O)Nc2cc(Cl)cc(Cl)c21 (stereo not drawn) | 31.6 µM [falling, single point] | –
